Assay results published in article PMC7522779.
Residue numbers refer to the chain shown, from its start. No constants are given. Whether binding was seen depends on the method and setting. In cells and extracts the contact can be indirect. A yes stands for co-enrichment or nearness to the bait. Other partners may have been found.

Amino acid sequences for entries named in this document (tags omitted).
UniProt Q02647: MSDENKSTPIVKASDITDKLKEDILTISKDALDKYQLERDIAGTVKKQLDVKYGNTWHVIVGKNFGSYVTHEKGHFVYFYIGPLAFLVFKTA

T1: Pex14p^TPA-S266D (phosphomimicking mutant) (S. cerevisiae) (UniProt P53112)
T1 sequence: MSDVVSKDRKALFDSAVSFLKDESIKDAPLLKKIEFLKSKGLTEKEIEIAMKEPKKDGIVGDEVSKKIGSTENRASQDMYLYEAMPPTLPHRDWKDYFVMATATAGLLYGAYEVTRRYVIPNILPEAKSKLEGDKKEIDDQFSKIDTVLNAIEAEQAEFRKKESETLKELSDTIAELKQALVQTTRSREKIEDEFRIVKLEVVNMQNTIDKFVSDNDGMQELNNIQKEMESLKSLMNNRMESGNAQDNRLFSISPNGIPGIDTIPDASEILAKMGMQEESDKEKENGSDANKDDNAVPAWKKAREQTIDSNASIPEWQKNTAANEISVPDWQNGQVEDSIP

T2: Pex14p^TPA-S266A (non-phosphorylatable mutant) (S. cerevisiae) (UniProt P53112)
T2 sequence: T1 sequence with D266A

B1: Pex2p (protein, UniProt P32800 1-271)
chain: MSRVAQLDSIALDKELYGQFWSEFNAAFNTSEHKEEWELALNTVVFMCATRFLPHYGSSCTYGSALSGVVFQCRKRTLYVVTVLAGYVWKKITHIIFNGPHCGNQMMWLKLYKWVNLLYHGCDVTNFLRFLAAEGPNARAFLSPLYRAFNVHSTRLIRDGSAIASEFYSNSVFAGLEYQNRQLLWNALLELFSNTLLTKRGLLTFVKKPPRSRSTTTYKTVCPRCGGFPTNPYQIACCRANYCYVCVVKALEWSMCDACGSSGRLTASPVY
B2: Pex10p (protein, UniProt Q05568 1-337)
chain: MKNDNKLQKEALMRLSQLRFPFADAPSIVQAHQKDEQIQGLLIMKVTELCKLIKSQLFVNSYPKELSIFAKLLYLLFTTGRRGRTLGEEYVDLTYTNRKGTRLAGRLKMIVFAFAYPLCPYFITKLYKKIMKNNKESKIEDTESVAAFCKGLLDFILDVHMTLFYFKGAFYSISKRIFGMRYVFKHILSKNEANFREEGSQKYKVLGYILLAQNVMKWYPVLTSTLGSWIYGRKRTNDSITRSSVGLQERSEHESIEGIPKESQLTHINLSDKNQLPFIPEASRKCILCLMNMSDPSCAPCGHLFCWSCLMSWCKERPECPLCRQHCQPQEILVLRQ
B3: Pex12p (protein, UniProt Q04370 1-399)
chain: MSFYSNLPSAGQSSRGSSTSGRNGVGLEPLYPTIFEIMSSQEIDSLLPASIRYLLANHLVANFPNRYTLRLNKYFFEWFQAIKGFVEWYHLKTYNSTFIDRFYGLQLFSSRDRNLALTQCLNPKGQSEWPQGLQLNQQQKSVIFLEKIILPYITAKLDEILEKISMNNIFSSDETENKWPKRAFLRIYPFIKKLLALSNLLVKLLFLTKRTGSVSLLQYLFKIEYTTVRPLSSELSGLKETKGMDNRLRKTNISSIFALMQGQLSIIPRFLTFMGSQFFPTFIFVLRVYQWWTTQDMTTKLQKRVNDLDEDIPRPPFSSHSDKTEDKEGVSEACPVCEKTVQNPCVLETGYVACYPCAISYLVNNEGHCPVTNKKLLGCTYNKHTNKWEVVTGIRKLLI
B4: Pex11p (protein, UniProt Q12462 1-236)
chain: MVCDTLVYHPSVTRFVKFLDGSAGREKVLRLLQYLARFLAVQNSSLLARQLQAQFTTVRKFLRFLKPLNHLQAAAKFYDNKLASDNVVRVCNVLKNIFFAAYLSLDQVNLLRILKVIPVTVLTGKKIPRWSNWCWLFGLLSGLAMDLRKIQTSHAQIAAFVKAKSQSQGDEHEDHKKVLGKAYQDRYTALRRLFWDAADSFIVLNNLGYLSSNEEYVALSGVVTSILGMQDMWKAT
B5: Pex18p (protein, UniProt P38855 1-283)
chain: MNSNRCQTNEVNKFISSTEKGPFTGRDNTLSFNKIGSRLNSPPILKDKIELKFLQHSEDLNQSRSYVNIRPRTLEDQSYKFEAPNLNDNETSWAKDFRYNFPKNVEPPIENQIANLNINNGLRTSQTDFPLGFYSQKNFNIASFPVVDHQIFKTTGLEHPINSHIDSLINAEFSELEASSLEEDVHTEEENSGTSLEDEETAMKGLASDIIEFCDNNSANKDVKERLNSSKFMGLMGSISDGSIVLKKDNGTERNLQKHVGFCFQNSGNWAGLEFHDVEDRIA
B6: Pex17p (protein, UniProt P40155 1-199)
chain: MTSINSFPRNIDWPSNIGIKKIEGTNPTVNAIKGLLYNGGSIYAFLYFVIAMFVEPTLQKQYQQRNDFSLFVLLRLRRIIAQLQKRLVMTPVSSLGFNEQNNFVERSTQTSDDNIIREDNSHWAEMIYQLQNMKQELQYFNRSSGQPSESIDDFVFQIKMVTDQVELTDRSRAFSNKSRNIIQGIREIKGWFVNGQVPR

Key:
[1] = molecular target: T1, Pex14p^TPA-S266D (phosphomimicking mutant) (S. cerevisiae); assay: affinity purification with mass spectrometry; eluates of the IgG Sepharose purification of TPA-tagged Pex14p variants (digitonin-solubilised membranes) and a second replicate, gel-based LC-MS; iBAQ intensities normalised, Pex14p set to 100%
[2] = molecular target: T2, Pex14p^TPA-S266A (non-phosphorylatable mutant) (S. cerevisiae); assay: as above

Molecule	binding [1]	binding [2]
Dyn2p (from UniProt Q02647 1-92)	binds	binds
B1	binds	binds
B2	binds	binds
B3	binds	binds
B4	binds	binds
B5	binds	binds
B6	binds	binds
